A short description of this assay: qHTS Assay to Find Inhibitors of Chronic Active B-Cell Receptor Signaling. The settings on record: ABC-DLBCL IkBa-CBG/CBR reporter, luminescence ratio (green luciferase fused to IkBa over red control in TMD8 lymphoma cells), 4 h. Summed up:
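TMD8 human ABC-DLBCL cells with doxycycline-inducible IκBα–green luciferase fusion and unfused red luciferase, in 0.5% FBS medium; compounds up to 46 uM, 4 h at 37C. Green/red luminescence ratio, filter-overlap corrected, fitted to concentration-response curves.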

Where [1] appears, read: measured here: CBR red luminescence, cell number.

Each structure is given as a SMILES string. Some of the results follow. Shown are side measurements of this screen, not its main read-out; they come without a call. Most of these compounds were active or inconclusive in the main read-out, so they are no random draw. Potencies come from curve fits of mixed quality, noted in brackets.

For `NC(=O)c1ccc(Sc2nnc(-c3cccs3)n2CC2CCCO2)c([N+](=O)[O-])c1` (centres undefined), under setting [1], the AC50 (commonly the concentration at which the activity in the assay is half-maximal) is 18.4 µM [falling, partial curve, poor fit].
On the same count and under the same terms, the result for `CCN(C(=O)c1ccc(Cl)c([N+](=O)[O-])c1)c1ccccc1` reads 6.31 µM [rising, single point]; that for `O=C(c1ccc2ncsc2c1)N1CCCCC1`, 35.5 µM [falling, partial curve, poor fit].
Still for that read-out and setting: the result for `COc1nc(Nc2ccc(OC)c(Cl)c2)nc(OC)n1` reads 32.6 µM [falling, single point]; that for `COC(=O)c1c(-c2ccc(OC)cc2)sc2cc(OC)c(OC)cc12`, 11.6 µM [rising, partial curve, poor fit].
The same measure, in the same setting: for `Fc1ccccc1NC(=S)NCc1ccc2c(c1)OCO2` the value was 29.1 µM [rising, single point]; for `O=S(=O)(NCCc1ccc(Cl)cc1)c1cccs1`, 17.8 µM [falling, partial curve, poor fit]; for `O=C(CSc1nc2ccccc2c(=O)n1-c1ccccc1Cl)Nc1cccc(S(=O)(=O)N2CCOCC2)c1`, 1.84 µM [rising, full curve].
Take `O=C1C=C(Nc2ccc(O)cc2)CC(c2ccco2)C1` (centres undefined): the AC50 under setting [1] is 9.2 µM [falling, partial curve, poor fit].
Consider `Cn1cc(Cl)c(C(=O)Nc2nc3ccccc3s2)n1`, for which the AC50 under setting [1] was 1.64 µM [falling, partial curve].
Still for that read-out and setting: the result for `O=c1[nH]c2ccc(S(=O)(=O)N3CCN(c4ccc(F)cc4)CC3)cc2o1` reads 5.62 µM [rising, single point].
Still for that read-out and setting: the result for `Cc1ccc(Cl)cc1NC(=S)N(Cc1cccnc1)Cc1ccccc1Cl` reads 12.6 µM [falling, partial curve, poor fit].
The same measure, in the same setting: the result for `Cc1cccc(C)c1OCC(=O)NNC(=O)Nc1ccc(Cl)cc1` reads 14.6 µM [rising, partial curve, poor fit]; that for `COC(=O)c1cc(OC)c(OC)cc1NC(=O)c1ccc(OC)c(OC)c1`, 0.58 µM [rising, full curve].
Regarding `C/C(=N\NC(N)=S)c1ccc(Cl)s1`, the AC50 under setting [1] was 8.2 µM [rising, partial curve] and the concentration at half-maximal activity (AC50) (measured here: IkBa-CBG green luminescence) was 18.4 µM [falling, single point].
For `CN(CC(=O)Nc1ccc(F)cc1)C(=O)COC(=O)C1CCN(c2ccc(C(F)(F)F)cn2)CC1`, the AC50 under setting [1] was 29.1 µM [falling, single point].
The same measure, in the same setting: the result for `Cn1c(SCC(=O)Nc2cc(=O)n(C)c(=O)n2C)nnc1-c1cccs1` reads 10.3 µM [falling, partial curve, poor fit].
On the same count and under the same terms, for `Cc1ccc(-n2ncc3c(=O)n(-c4ccc(C)c(C)c4)c(C)nc32)cc1` the value was 29.1 µM [rising, partial curve, poor fit].

The record behind these values is PubChem BioAssay AID493014 (National Center for Advancing Translational Sciences (NCATS), 2011).
